PubChem BioAssay AID1259308 | NCATS | 2017

Aim: 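Candidate targets for better recombinant protein yield in mammalian cells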 (primary screen)
System: human HEK293 embryonic kidney cells stably expressing firefly luciferase (HEK-CMV-Luc2-Hygro)
Reagents: single siRNA against human genes, 0.8 pmol siRNA per well
Duration: 72 h
Measurement: 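Reporter luminescence and viable-cell signal on separate replicate plates, given as percent of non-targeting control and median/MAD z-scores, plus per-cell luciferase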
Scale: total luciferase, z-score and total luciferase, % of control: higher = more reporter protein produced; luciferase per cell, z-score: higher = more reporter output per viable cell
Rule for the call: 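An siRNA counts as active if its total luciferase robust z-score exceeds 3; genes with two or more such siRNAs out of three were retested with fresh siRNAs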
Meaning of the calls: active = raised luciferase; inactive = no rise
In all, the deposit lists about 59,000 reagents; this is a part drawn at random. About 1,510 of all reagents (2.6%) count as active. 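Calls use total luciferase alone and ignore viability, so some active siRNAs may act by altering cell number.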 Reagents against one gene are numbered here. Further read-outs or replicates are left out here.

gene knocked down,siRNA no.,"total luciferase, z-score","total luciferase, % of control","luciferase per cell, z-score",call
ACAT1 (acetyl-CoA acetyltransferase 1),1,1.28,107,1.13,inactive
ACAT1 (acetyl-CoA acetyltransferase 1),2,1.04,103,2.01,inactive
ACAT1 (acetyl-CoA acetyltransferase 1),3,0.768,97.2,0.363,inactive
IFRD1 (interferon related developmental regulator 1),1,-0.358,74.8,-0.86,inactive
IFRD1 (interferon related developmental regulator 1),2,0.0372,82.6,-0.793,inactive
IFRD1 (interferon related developmental regulator 1),3,3.05,142,4.1,active
ZFR2 (zinc finger RNA binding protein 2),1,-0.636,69.2,-0.349,inactive
ZFR2 (zinc finger RNA binding protein 2),2,0.692,95.7,0.672,inactive
ZFR2 (zinc finger RNA binding protein 2),3,0.947,101,0.858,inactive
IZUMO2 (IZUMO family member 2),1,-0.142,79.1,-0.38,inactive
IZUMO2 (IZUMO family member 2),2,1.28,107,0.713,inactive
IZUMO2 (IZUMO family member 2),3,5.35,188,3.12,active
GNAZ (G protein subunit alpha z),1,0.281,87.5,0.335,inactive
GNAZ (G protein subunit alpha z),2,0.606,93.9,0.571,inactive
GNAZ (G protein subunit alpha z),3,3.14,144,2.76,active
PHETA2 (PH domain containing endocytic trafficking adaptor 2),1,-0.0722,80.4,0.148,inactive
PHETA2 (PH domain containing endocytic trafficking adaptor 2),2,0.257,87,0.788,inactive
PHETA2 (PH domain containing endocytic trafficking adaptor 2),3,0.849,98.8,0.232,inactive
WTIP (WT1 interacting protein),1,0.297,87.8,0.344,inactive
WTIP (WT1 interacting protein),2,1.07,103,0.984,inactive
WTIP (WT1 interacting protein),3,2.22,126,1.17,inactive
VIT (vitrin),1,-0.0275,81.3,-0.554,inactive
VIT (vitrin),2,-0.0665,80.6,-0.428,inactive
VIT (vitrin),3,-0.701,68,1.05,inactive
DONSON (DNA replication fork stabilization factor DONSON),1,0.0942,83.8,1.17,inactive
DONSON (DNA replication fork stabilization factor DONSON),2,-0.139,79.1,0.91,inactive
DONSON (DNA replication fork stabilization factor DONSON),3,-0.268,76.6,-0.205,inactive
BRCA1 (BRCA1 DNA repair associated),1,0.958,101,0.655,inactive
BRCA1 (BRCA1 DNA repair associated),2,1.15,105,1.14,inactive
BRCA1 (BRCA1 DNA repair associated),3,0.163,85.1,0.481,inactive
CPAP (centrosome assembly and centriole elongation protein),1,-0.297,76,-0.248,inactive
CPAP (centrosome assembly and centriole elongation protein),2,1.22,106,1.36,inactive
CPAP (centrosome assembly and centriole elongation protein),3,-0.131,79.3,-0.285,inactive
TRRAP (transformation/transcription domain associated protein),1,0.799,97.8,2.41,inactive
TRRAP (transformation/transcription domain associated protein),2,1.05,103,1.7,inactive
TRRAP (transformation/transcription domain associated protein),3,-0.0899,80.1,1.48,inactive
TAFA3 (TAFA chemokine like family member 3),1,-1.25,57,1.8,inactive
TAFA3 (TAFA chemokine like family member 3),2,2.85,138,2.03,inactive
TAFA3 (TAFA chemokine like family member 3),3,-0.197,78,0.655,inactive
MDFI (MyoD family inhibitor),1,-2.28,36.6,-2.39,inactive
MDFI (MyoD family inhibitor),2,0.0593,83.1,-0.329,inactive
MDFI (MyoD family inhibitor),3,-1.54,51.2,-1.06,inactive
VSIG10 (V-set and immunoglobulin domain containing 10),1,3.68,155,2.64,active
VSIG10 (V-set and immunoglobulin domain containing 10),2,0.199,85.8,-0.408,inactive
VSIG10 (V-set and immunoglobulin domain containing 10),3,1.48,111,1.47,inactive
"ALG1L3P (ALG1 like 3, pseudogene)",1,-0.928,63.4,-1.2,inactive
"ALG1L3P (ALG1 like 3, pseudogene)",2,-0.105,79.8,-0.152,inactive
"ALG1L3P (ALG1 like 3, pseudogene)",3,0.383,89.5,-0.648,inactive
HDX (highly divergent homeobox),1,0.855,98.9,1.59,inactive
HDX (highly divergent homeobox),2,0.273,87.3,0.189,inactive
HDX (highly divergent homeobox),3,-0.688,68.2,-0.791,inactive
CACNB2 (calcium voltage-gated channel auxiliary subunit beta 2),1,0.21,86.1,0.0766,inactive
CACNB2 (calcium voltage-gated channel auxiliary subunit beta 2),2,-1.2,58,-0.922,inactive
CACNB2 (calcium voltage-gated channel auxiliary subunit beta 2),3,0.774,97.3,-0.034,inactive
OTULIN (OTU deubiquitinase with linear linkage specificity),1,-0.641,69.1,0.474,inactive
OTULIN (OTU deubiquitinase with linear linkage specificity),2,-1.08,60.5,-1.28,inactive
OTULIN (OTU deubiquitinase with linear linkage specificity),3,-1.18,58.5,-0.325,inactive
SNX30 (sorting nexin family member 30),1,-2.04,41.3,-1.2,inactive
SNX30 (sorting nexin family member 30),2,-0.884,64.3,0.121,inactive
SNX30 (sorting nexin family member 30),3,-0.281,76.3,-0.856,inactive
GARNL3 (GTPase activating Rap/RanGAP domain like 3),1,0.302,87.9,0.0703,inactive
GARNL3 (GTPase activating Rap/RanGAP domain like 3),2,-0.744,67.1,-1.24,inactive
GARNL3 (GTPase activating Rap/RanGAP domain like 3),3,-1.24,57.2,-0.945,inactive
"ALKBH8 (alkB homolog 8, tRNA methyltransferase)",1,-0.641,69.1,-0.497,inactive
"ALKBH8 (alkB homolog 8, tRNA methyltransferase)",2,-1.72,47.7,-1.95,inactive
"ALKBH8 (alkB homolog 8, tRNA methyltransferase)",3,-0.539,71.2,-0.756,inactive
ZNF609 (zinc finger protein 609),1,0.755,96.9,0.657,inactive
ZNF609 (zinc finger protein 609),2,-0.36,74.7,-0.987,inactive
ZNF609 (zinc finger protein 609),3,0.526,92.3,1.03,inactive
THUMPD2 (THUMP domain 2 tRNA and snRNA guanosine methyltransferase),1,-0.231,77.3,0.836,inactive
THUMPD2 (THUMP domain 2 tRNA and snRNA guanosine methyltransferase),2,-0.432,73.3,-0.489,inactive
THUMPD2 (THUMP domain 2 tRNA and snRNA guanosine methyltransferase),3,-0.693,68.1,-0.716,inactive
FAM3A (FAM3 metabolism regulating signaling molecule A),1,-0.306,75.8,-0.88,inactive
FAM3A (FAM3 metabolism regulating signaling molecule A),2,-0.734,67.3,-1.41,inactive
FAM3A (FAM3 metabolism regulating signaling molecule A),3,0.178,85.4,-0.188,inactive

An excerpt taken from the entries so far, as a working copy:
gene knocked down,siRNA no.,"total luciferase, z-score","total luciferase, % of control","luciferase per cell, z-score",call
VSIG10 (V-set and immunoglobulin domain containing 10),1,3.68,155,2.64,active
VSIG10 (V-set and immunoglobulin domain containing 10),2,0.199,85.8,-0.408,inactive
VSIG10 (V-set and immunoglobulin domain containing 10),3,1.48,111,1.47,inactive
"ALG1L3P (ALG1 like 3, pseudogene)",1,-0.928,63.4,-1.2,inactive
"ALG1L3P (ALG1 like 3, pseudogene)",2,-0.105,79.8,-0.152,inactive
"ALG1L3P (ALG1 like 3, pseudogene)",3,0.383,89.5,-0.648,inactive
HDX (highly divergent homeobox),1,0.855,98.9,1.59,inactive
HDX (highly divergent homeobox),2,0.273,87.3,0.189,inactive
HDX (highly divergent homeobox),3,-0.688,68.2,-0.791,inactive
CACNB2 (calcium voltage-gated channel auxiliary subunit beta 2),1,0.21,86.1,0.0766,inactive
CACNB2 (calcium voltage-gated channel auxiliary subunit beta 2),2,-1.2,58,-0.922,inactive
